Values are the deposited “Percent Effect”, in %.
The controls that fix the scale are not given in the record; negative values are as filed.
The compounds are a random part of those screened.
Two or more numbers in one place are separate tests of the same structure; such repeats can differ widely.
A dash means the value is not listed here; it may have been measured.

T. brucei: 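Whole-parasite assay of Trypanosoma brucei over 72 hours; the read-out is not stated. Compounds at 30 µM. Higher reads as stronger inhibition (inferred: compounds with an IC50 in retests scored well above the rest). Values scatter widely below zero; nearly all retest evidence comes from the higher of the two concentrations used. Size under these conditions: about 64,000 compounds, about 940 of them at 50% or above in at least one test.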
Leishmania in macrophages: 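Cell assay of Leishmania donovani living inside macrophages; the read-out is not stated. Tested at 30 µM. The record gives no direction; compounds that gave an IC50 in retests scored well above the rest, so higher reads as stronger inhibition. About 69,000 compounds were tested under these conditions; 1.5% (about 1,000) showed 50% or more at least once.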

structure,T. brucei,Leishmania in macrophages
COC(=O)c1cccc(C2CNCCN2C(C)=O)c1 (configuration not stated),-13.94,-11.11
CN(C)CCN1CCOCC2(CCCN(C(=O)c3cccc(O)c3)C2)C1 (configuration not stated),-6.53,16.01
O=C(c1cccs1)N1CCC(Cn2nc(-c3ccco3)ccc2=O)CC1,4.79,-3.208
CCN(Cc1nc2c(cnn2C)c(=O)[nH]1)c1cccc(C)c1,0.8835,15.91
CCCn1cc(C(=O)NCCc2ccc3c(c2)OCO3)c(C)n1,-8.23,11.53
O=c1[nH]nc(CCCN2CCOCC2)n1Cc1cccc(F)c1,-16.42,12.2
Cc1cc(C(=O)Nc2n[nH]c(C3CC3)n2)c2c(C)nn(C)c2n1,-,-3.54
Cc1cnc2c(S(=O)(=O)NCC3CCN(C4CC4)C3)cccc2c1 (configuration not stated),45.03,31.34
O=C(COc1ccc2c(c1)CCC2)NCc1ccco1,-26.12,-15.12
C=C(C)COc1ccccc1NC(=O)N1CCOCC1CO (configuration not stated),-18.33,24.11
CN(Cc1ccco1)Cc1ccccc1CNC(=O)c1cc[nH]n1,-15.86,27.28
Cc1cccc(C2(C(=O)NCC3CN(C)CCO3)CC2)c1 (configuration not stated),-,36.33
COc1ccc(C2CC(=O)Oc3cc(C)[nH]c(=O)c32)c(OC)c1 (configuration not stated),-17.69,-1.547
Cc1ccc(C(=O)N2CCCN(Cc3cscn3)CC2)o1,-,20.02
Cc1oc(C)c(C(=O)NCc2cccc(C(N)=O)c2)c1C,-,17.16
Cc1ccc2c(n1)N(C)CCN(C(=O)NC1CC1)C2.O=C(O)C(F)(F)F,-40.38,-6.874
CC(NC(=O)CN(C)S(C)(=O)=O)c1nnc2n1CCCCC2 (configuration not stated),-26.99,3.098
COCC1CN(S(=O)(=O)c2ccc(C)cc2)Cc2c1cnn2C.O=C(O)C(F)(F)F (configuration not stated),-73.35,11.18
CCNC(=O)N1CCC2(CC1)CCn1c(C3CC3)cnc12,-64.98,-22.39
Cc1ccoc1C(=O)N1Cc2c(CN3CCCCC3)nn(C)c2C1.O=CO,-63.48,16.7
N#Cc1ccccc1CN(CC(N)=O)C1CCCC1,-6.973,8.291
CCOCCN1CCN(Cc2nnc(-c3ccco3)o2)CC1,-4.791,17.48
CN1CCN(C)C2(CCN(Cc3ccsc3)CC2)C1=O.O=C(O)C(F)(F)F,-76.66,5.697
Cc1nc(CN2C(=O)CCC23CCN(Cc2ccco2)CC3)cs1,-71.74,23.38
CCn1ccc(C(=O)N2CCCC2c2nnc(-c3scnc3C)o2)n1 (configuration not stated),23.84,33.06
Cn1nc2c(cc1=O)CN(Cc1nc(-c3ccccn3)no1)CC2,-,18.46
[H][C@]12C[C@H](NC(=O)c3cc(C)no3)[C@@]1([H])CN(S(=O)(=O)c1ccc(C)cc1)C2,-4.03,-5.84
CCN(Cc1ccncc1)CC1(O)CCN(C(=O)c2ccccc2C)C1 (configuration not stated),-21.42,30.14 & 3.666
Cc1nc(-c2cc(C(=O)NCC(C)(C)CO)c3ccccn23)cs1,-,-33.43
CC(C)CCC(C)NC(=O)Nc1ccccn1 (configuration not stated),-20.43,31.82
[H][C@]12CC[C@]([H])(CN(C(=O)c3ccc(C)s3)C1)N(CC1CCC1)C2,-60.4,16.49
Cc1cc(N2CCN(Cc3ccccc3)CC(O)C2)nc(N)n1 (configuration not stated),-36.52,27.37
Cn1cnnc1C1CCCN(C(=O)c2cc(-c3ccccc3)on2)C1 (configuration not stated),-25.06,14.92
CN(C)CCCNC(=O)c1ccccc1NC(=O)c1ccccc1Cl,-18.21,-0.7603
COc1cccc(CNC(=O)N2CCN(Cc3cc(C)on3)CC2)c1,-41.14,9.16
O=C(NCCNc1ccccn1)Nc1cc(C(F)(F)F)c[nH]c1=O,-,13.54
[H][C@@]12CS(=O)(=O)C[C@]1([H])N(C(=O)c1[nH]c3ccc(F)cc3c1C)CCN2C,-17.99,-10.02
Cc1nnc2ccc(NCC3(N4CCCCC4)CCOCC3)nn12,-2.564,20.45
O=C(Cc1ccc(F)cc1Cl)N1CC[C@H](CO)[C@@H](O)C1,-32,-9.399
CN(C)C(=O)C1OC2(CCNCC2)c2ccccc21.O=C(O)C(F)(F)F (configuration not stated),-40.17,9.118
[H][C@@]12C[C@H](C(=O)NC(C)C)[C@@]([H])(CN(C(=O)NC(C)C)C1)O2,-5.716,13.89
Cc1cccc(CNC(=O)CC2CCN(C(=O)C(C)C)CC2)n1,-18.78,-6.342
CCN(Cc1c(C)nn(CC)c1C)S(=O)(=O)c1cn(C)nc1C,32.25,14.44
CCc1ccc(CCn2cnc(C#N)n2)cc1,-11.71,5.258
Cc1cc(N2CCOC(c3ccc(N(C)C)cn3)C2)nc(N)n1 (configuration not stated),-1.055,29.7
CCOC(=O)N1CC(=O)N(CCc2ccccc2)CC(O)C1 (configuration not stated),-39.47,-8.558
COc1ccccc1OCc1cc(C(=O)NC[C@@H]2CCCN2)n[nH]1,-6.546,8.977
COc1ccc(CN2CCCC2Cn2nc(C)nc2C)cc1F (configuration not stated),13.69,9.224
CN(C1CCCN(c2ccccn2)C1)S(=O)(=O)N1CCOCC1 (configuration not stated),-8.79,34.39
O=C(O)c1nnn(-c2ccccc2)c1-c1ccncc1,-41.15,19.64 & 4.089
CN1C(=O)CO[C@H](c2ccc(NC(=O)c3cccc(F)c3)cc2)[C@H]1CO,-17.36,19.45
COC(=O)CCCC(=O)N1CCCCC1c1ccc(F)cc1 (configuration not stated),-55.05,-17.53
Cc1cnc(CN(C)C2CCN(Cc3ccccc3C#N)C2)o1 (configuration not stated),-30.03,-9.329
COCCC(=O)N1CCC2(CN(Cc3cccc(Cl)c3)C2)C1,-16.53,38.73
Cc1cc(C(F)(F)F)nn1C(C)C(=O)Nc1ccc(Cl)cn1 (configuration not stated),-5.828,15.04
CCC(CO)N(Cc1cccnc1)C(=O)c1ccoc1C (configuration not stated),-20.78,-54.42
COc1ccc(CNC(=O)c2nn(C)c3c2CS(=O)(=O)CC3)cc1OC,43.09,9.834
OCC1CCCCN1Cc1cc(O)c2cccc(F)c2n1 (configuration not stated),-50.55,-48.09
CN(C)Cc1ccnc(C2CN(Cc3c(F)cccc3F)CCO2)n1 (configuration not stated),-17.22,-7.013 & -3.387
Cc1ccc(C(=O)N2CCCC(CNS(C)(=O)=O)C2)o1 (configuration not stated),-19.47,17.38
O=C(O)C(F)(F)F.O=C(O)C(F)(F)F.[H][C@@]12COC[C@]1(C(=O)NCCc1cccs1)CN(Cc1ccccn1)C2,-41.58,14.09
CCc1noc(CN2CCC(NC(=O)c3ccc(C)s3)CC2)n1,7.081,27.4
O=C(N1CCC2(CC1)[C@H](O)C[C@@H]2O)C1(c2ccccc2F)CC1,-10.12,-16.52
CC(=O)Nc1nc(CN(C)C2CCCN(c3cccnn3)C2)cs1 (configuration not stated),-19.02,-0.1561
COC1(CNC(=O)CCCc2ccccc2)CCSC1 (configuration not stated),-38.03,-30.86 & 15.73

8 of the entries, repeated:

* CCOC(=O)N1CC(=O)N(CCc2ccccc2)CC(O)C1 (configuration not stated) : T. brucei: -39.47%; Leishmania in macrophages: -8.558%
* CN(C1CCCN(c2ccccn2)C1)S(=O)(=O)N1CCOCC1 (configuration not stated) : T. brucei: -8.79%; Leishmania in macrophages: 34.39%
* Cc1cc(N2CCN(Cc3ccccc3)CC(O)C2)nc(N)n1 (configuration not stated) : T. brucei: -36.52%; Leishmania in macrophages: 27.37%
* N#Cc1ccccc1CN(CC(N)=O)C1CCCC1 : T. brucei: -6.973%; Leishmania in macrophages: 8.291%
* O=C(N1CCC2(CC1)[C@H](O)C[C@@H]2O)C1(c2ccccc2F)CC1 : T. brucei: -10.12%; Leishmania in macrophages: -16.52%
* CN(C)C(=O)C1OC2(CCNCC2)c2ccccc21.O=C(O)C(F)(F)F (configuration not stated) : T. brucei: -40.17%; Leishmania in macrophages: 9.118%
* C=C(C)COc1ccccc1NC(=O)N1CCOCC1CO (configuration not stated) : T. brucei: -18.33%; Leishmania in macrophages: 24.11%
* Cc1cccc(C2(C(=O)NCC3CN(C)CCO3)CC2)c1 (configuration not stated) : Leishmania in macrophages: 36.33%

The values are deposited in ChEMBL (CHEMBL3988442, “University of Dundee, Small-Polar-MMV Screening Library” (2021)).